Values of other authors in patent US11744273B2, “Sweetness enhancing volatile compositions and methods of increasing perceived sweetness of a comestible” (University of Florida Research Foundation, Inc., priority 2016, dated 2023).

Conditions: tomato volatiles; cited from earlier work

SMILES | Odor description
C=CC(=O)CC [1-penten-3-one] | earthy, green, pungent
CCC(C)C=O (centres unmarked) [2-methylbuteraldehyde, 2-methylbutanal] | chocolate
CC(C)CCO [3-methyl-1-butanol] | whiskey
CC1C=CC2C(C1)C2(C)C (centres unmarked) [4-carene] | dry, woody, sage, thyme
CC(C)=CCCC(C)O (centres unmarked) [6-methyl-5-hepten-2-ol] | oily green coriander
CC(=O)OCCC(C)C [isopentyl acetate] | juicy fruit, banana, pear
CC(C)CC(=O)O [isovaleric acid] | cheesy or sweaty
CC(C)=CCC/C(C)=C\C=O [neral] | lemon
